{"source": "paper PMC7948647", "about": "“Region 4 of the RNA polymerase σ subunit counteracts pausing during initial transcription”", "assay_in_all_cases": "pull-down (Ni-agarose RNA retention)", "key": {"[1]": {"system": "RNA polymerase core (EcoRNAP) (Escherichia coli)", "details": "1 M NaCl wash, reduced retention; 40 mM HEPES pH 7.9, 5 mM MgCl2, 50 mM NaCl, 5% glycerol; binding to Ni-NTA at 18 C, washes with 250 mM NaCl (1 M for core controls), labeling at 22 C; recombinant protein; protein details: C-terminal 6xHis on rpoC; label: [alpha-32P]-UTP added after binding; letters put together from the description"}, "[2]": {"system": "RNA polymerase core (EcoRNAP) + sigma70 delta4", "details": "similar result to LDT; 40 mM HEPES pH 7.9, 5 mM MgCl2, 50 mM NaCl, 5% glycerol; binding to Ni-NTA at 18 C, washes with 250 mM NaCl (1 M for core controls), labeling at 22 C; recombinant protein; protein details: C-terminal 6xHis on rpoC,N-terminal 6xHis; label: [alpha-32P]-UTP added after binding; letters put together from the description"}, "[3]": {"system": "RNA polymerase core (EcoRNAP) + sigma70", "details": "similar result to LDT; 40 mM HEPES pH 7.9, 5 mM MgCl2, 50 mM NaCl, 5% glycerol; binding to Ni-NTA at 18 C, washes with 250 mM NaCl (1 M for core controls), labeling at 22 C; recombinant protein; protein details: C-terminal 6xHis on rpoC,N-terminal 6xHis; label: [alpha-32P]-UTP added after binding; letters put together from the description"}}, "note": "Construct, isoform or probe ends are uncertain for at least one entry. For some of these results: Weaker means in comparison with the reference protein, sequence or condition of that experiment. For some of these results: At least one verdict rests on a figure or table, not on a statement of the authors.", "data": [{"sequence": "GUCGC / TGCAATTGTCAGCGACTCA / ACAATTGCA [SDT scaffold + pRNA5]", "values": [{"measurement": "binding result", "setting": "[1]", "result": "binds more weakly"}]}, {"sequence": "AGUCGC / TGCAATTGTCAGCGACTCA / ACAATTGCA [SDT scaffold + pRNA6]", "values": [{"measurement": "binding result", "setting": "[1]", "result": "binds more weakly"}]}, {"sequence": "UCGC / TGCAATTGTCAGCGACTCA / ACAATTGCA [SDT scaffold + pRNA4]", "values": [{"measurement": "binding result", "setting": "[2]", "result": "binds more weakly"}, {"measurement": "binding result", "setting": "[3]", "result": "binds"}]}]}
